Measurements reported in PubChem BioAssay AID1508588 (Peter MacCallum Cancer Centre, 2020).
Assay: 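Genome-wide search for knock-downs that heighten vemurafenib action in melanoma cells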 (primary screen). Cells: human WM266.4 melanoma cells (BRAF V600 mutant). Reagent: siRNA pool against human genes, 40 nM. Time to read-out: 96 h from transfection to read-out. Conditions: vemurafenib 300 nM (about IC25), added 48 h after transfection, for 48 h; comparison arm got DMSO vehicle only. Read-out: 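Cell gain (DAPI nuclei at end minus before drug, mean of two replicates) and medium lactate by absorbance per cell, both as ratio to non-targeting siRNA, also grouped into fold-change classes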. Reading the numbers: cell gain with vemurafenib: higher = more cell gain than with non-targeting siRNA; lactate per cell with vemurafenib: higher = more lactate made per cell. Hit rule: 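a knock-down counts as enhancing when its fold-change classes with vehicle and with vemurafenib, taken together, show a stronger drug effect on cell gain or lactate per cell; exact class pairs not stated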. Meaning of the calls: active = enhances vemurafenib effect; inactive = no enhancement seen.
The whole screen tested about 18,000 reagents; below is a random part of them. 790 of them (4.4%) were called active. 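Calls rest on a combination of fold-change classes in drug and vehicle arms, not all shown here.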 A number with no mark means an inactive call.

Target gene | cell gain with vemurafenib | lactate per cell with vemurafenib
EPHA4 | 0.41 | 0.96
MBD3 | 0.7 | 0.55
TRMT5 | 0.82 | 1.08
KRT33B | 0.89 | 0.74
PABPC4 | 0.66 | 1.02
WFDC12 | 0.45 | 1.1
MOGAT3 | 1.26 | 0.34
RHBDF2 | 0.81 | 0.68
MON1A | 0.71 | 0.68
NAA25 | 0.5 | 0.92
CDK2AP1 | 0.62 | 0.8
ZNF662 | 0.72 | 1.05
RAET1E | 0.61 | 0.28
TMBIM4 | 0.21 | 2.01
GJB7 | 0.25 | 0.72
LDHC | 0.54 | 0.5
SLC6A12 | 0.67 | 0.55
EXOSC2 | 0.82 | 0.56
SYCN | 0.48 (active) | 0.46
HSPA1B | 0.97 | 0.64
TMEM105 | 0.9 | 0.69
TCHP | 0.93 | 0.93
MYC | 0.27 | 0.44
ST13 | 0.75 | 0.79
SDR39U1 | 0.84 | 0.92
RPUSD4 | -0.05 | 0.77
PDGFRL | 0.47 | 1.38
CNST | 0.6 | 0.6
SNX3 | 0.78 | 0.67
CES4A | 0.91 | 0.68
MTCL2 | 0.93 | 0.98
KRT75 | 1.08 | 0.93
XIAP | 0.85 (active) | 0.64
MICALL2 | 1.12 | 0.8
IL31RA | 0.55 | 1.16
ZNF274 | 0.5 | 1.42
TAF1C | 0.69 | 0.86
DDX20 | 0.58 | 0.52
AICDA | 0.66 | 0.92
TUBA3E | 0.01 | 1.79
IL20RA | 0.84 | 0.92
C9orf163 | 1.18 | 0.77
GSTM2 | 0.19 | 0.62
CD40 | 0.79 | 1.36
MRGPRX2 | 0.59 | 0.42
MEF2D | 0.92 | 0.42
GAD1 | 0.83 | 1.07
SPATA32 | 0.28 | 0.78
SNIP1 | 0.38 | 1.46
ADPRHL1 | 0.91 | 1.04
KLRD1 | 0.43 | 1.44
WDR12 | 0.27 | 1.02
RAB37 | 0.46 | 1.14
HOXA13 | 1.27 | 1.25
STOM | 0.69 | 1.21
CFAP57 | 0.58 | 1.34
LY86 | 0.55 | 0.5
